The supplement of paper PMC10849652
The list shows a part of the results.

The chains behind the UniProt entries cited, without tags or fusion partners. Where a name states a change or a piece, a line headed by the entry shows the natural chain unless it says otherwise.
UniProt Q04206, whole entry, looked up: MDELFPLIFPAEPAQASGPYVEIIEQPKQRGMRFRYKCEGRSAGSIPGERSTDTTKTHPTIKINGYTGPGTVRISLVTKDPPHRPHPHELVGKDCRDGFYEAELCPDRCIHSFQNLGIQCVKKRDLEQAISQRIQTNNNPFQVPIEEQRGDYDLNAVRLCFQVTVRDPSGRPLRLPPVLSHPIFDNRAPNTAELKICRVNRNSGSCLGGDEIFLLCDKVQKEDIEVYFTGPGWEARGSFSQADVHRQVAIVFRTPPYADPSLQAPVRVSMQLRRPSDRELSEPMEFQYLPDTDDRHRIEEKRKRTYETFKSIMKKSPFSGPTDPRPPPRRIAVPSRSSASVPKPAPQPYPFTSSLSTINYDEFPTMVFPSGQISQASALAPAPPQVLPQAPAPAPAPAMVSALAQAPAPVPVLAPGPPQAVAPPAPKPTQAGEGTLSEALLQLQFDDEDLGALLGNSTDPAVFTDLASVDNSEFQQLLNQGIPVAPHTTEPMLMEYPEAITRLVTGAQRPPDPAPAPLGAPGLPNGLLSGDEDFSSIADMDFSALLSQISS
UniProt Q14644: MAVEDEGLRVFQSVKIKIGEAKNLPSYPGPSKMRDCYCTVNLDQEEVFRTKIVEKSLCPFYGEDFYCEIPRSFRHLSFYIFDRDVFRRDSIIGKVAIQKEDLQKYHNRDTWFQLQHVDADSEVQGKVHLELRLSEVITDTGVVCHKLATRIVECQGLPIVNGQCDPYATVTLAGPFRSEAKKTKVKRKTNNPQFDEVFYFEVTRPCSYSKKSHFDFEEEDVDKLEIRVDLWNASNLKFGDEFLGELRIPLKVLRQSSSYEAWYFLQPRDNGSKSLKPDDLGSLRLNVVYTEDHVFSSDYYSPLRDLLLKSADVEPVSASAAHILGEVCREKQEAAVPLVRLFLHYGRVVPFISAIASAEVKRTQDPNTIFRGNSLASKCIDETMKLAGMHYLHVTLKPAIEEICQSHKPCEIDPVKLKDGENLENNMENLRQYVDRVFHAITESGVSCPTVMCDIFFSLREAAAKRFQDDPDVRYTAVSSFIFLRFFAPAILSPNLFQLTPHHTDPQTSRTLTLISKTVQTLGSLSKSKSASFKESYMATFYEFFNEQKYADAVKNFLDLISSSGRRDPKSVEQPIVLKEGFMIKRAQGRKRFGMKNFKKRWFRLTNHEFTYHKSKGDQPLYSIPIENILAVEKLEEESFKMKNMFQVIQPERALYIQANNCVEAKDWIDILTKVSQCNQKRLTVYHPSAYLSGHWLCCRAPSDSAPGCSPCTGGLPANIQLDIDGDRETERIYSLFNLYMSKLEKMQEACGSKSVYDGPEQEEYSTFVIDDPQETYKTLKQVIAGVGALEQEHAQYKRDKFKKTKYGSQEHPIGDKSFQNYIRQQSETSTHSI
UniProt Q9BYM8: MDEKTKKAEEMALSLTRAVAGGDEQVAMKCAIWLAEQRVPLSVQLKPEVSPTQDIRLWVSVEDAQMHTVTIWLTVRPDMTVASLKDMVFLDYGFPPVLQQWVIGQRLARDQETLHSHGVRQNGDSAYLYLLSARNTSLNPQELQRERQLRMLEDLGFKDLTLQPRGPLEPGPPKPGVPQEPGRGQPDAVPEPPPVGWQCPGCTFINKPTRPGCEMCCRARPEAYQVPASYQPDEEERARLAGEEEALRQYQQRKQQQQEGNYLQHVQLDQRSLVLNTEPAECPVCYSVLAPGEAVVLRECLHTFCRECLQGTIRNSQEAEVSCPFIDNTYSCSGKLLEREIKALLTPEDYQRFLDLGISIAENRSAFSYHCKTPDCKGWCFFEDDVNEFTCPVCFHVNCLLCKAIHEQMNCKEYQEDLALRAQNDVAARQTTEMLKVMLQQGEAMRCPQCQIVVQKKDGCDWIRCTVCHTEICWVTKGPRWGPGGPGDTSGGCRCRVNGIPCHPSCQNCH
UniProt P38159: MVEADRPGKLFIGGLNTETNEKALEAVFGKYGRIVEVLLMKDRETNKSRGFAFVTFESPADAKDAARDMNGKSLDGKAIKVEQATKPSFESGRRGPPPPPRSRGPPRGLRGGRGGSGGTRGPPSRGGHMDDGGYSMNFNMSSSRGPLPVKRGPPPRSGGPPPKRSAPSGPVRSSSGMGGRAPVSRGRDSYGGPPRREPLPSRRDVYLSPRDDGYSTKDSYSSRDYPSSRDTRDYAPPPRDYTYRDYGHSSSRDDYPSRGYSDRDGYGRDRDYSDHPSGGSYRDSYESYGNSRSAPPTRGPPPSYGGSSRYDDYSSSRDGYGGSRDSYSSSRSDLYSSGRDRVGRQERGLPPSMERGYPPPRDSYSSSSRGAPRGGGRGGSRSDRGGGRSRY
UniProt Q14498: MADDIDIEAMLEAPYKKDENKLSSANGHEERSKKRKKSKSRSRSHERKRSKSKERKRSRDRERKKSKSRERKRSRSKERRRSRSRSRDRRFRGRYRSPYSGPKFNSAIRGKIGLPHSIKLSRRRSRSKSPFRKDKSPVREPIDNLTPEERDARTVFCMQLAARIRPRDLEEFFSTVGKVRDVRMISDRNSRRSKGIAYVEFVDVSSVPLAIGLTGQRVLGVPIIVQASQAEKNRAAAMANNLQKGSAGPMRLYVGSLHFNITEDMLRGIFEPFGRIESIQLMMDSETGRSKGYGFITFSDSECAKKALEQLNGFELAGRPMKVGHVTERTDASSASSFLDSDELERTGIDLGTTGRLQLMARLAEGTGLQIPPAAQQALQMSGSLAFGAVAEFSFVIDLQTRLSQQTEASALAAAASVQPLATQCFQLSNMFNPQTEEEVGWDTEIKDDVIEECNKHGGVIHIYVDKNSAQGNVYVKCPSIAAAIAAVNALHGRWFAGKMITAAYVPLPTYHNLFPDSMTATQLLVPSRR
UniProt Q00765: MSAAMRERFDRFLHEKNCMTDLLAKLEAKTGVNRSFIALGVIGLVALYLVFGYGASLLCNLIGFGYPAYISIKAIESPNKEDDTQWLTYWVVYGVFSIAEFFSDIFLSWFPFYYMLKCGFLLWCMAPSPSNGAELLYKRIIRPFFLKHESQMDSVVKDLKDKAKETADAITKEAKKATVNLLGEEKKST
UniProt O00287: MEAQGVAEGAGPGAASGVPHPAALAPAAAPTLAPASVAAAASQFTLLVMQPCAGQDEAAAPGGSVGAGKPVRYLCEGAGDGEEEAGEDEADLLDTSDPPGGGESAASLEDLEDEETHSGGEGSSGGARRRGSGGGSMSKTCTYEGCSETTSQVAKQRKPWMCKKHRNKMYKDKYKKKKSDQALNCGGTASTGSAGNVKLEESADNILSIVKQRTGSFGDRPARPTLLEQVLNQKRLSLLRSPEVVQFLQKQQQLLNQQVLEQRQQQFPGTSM
UniProt P48382: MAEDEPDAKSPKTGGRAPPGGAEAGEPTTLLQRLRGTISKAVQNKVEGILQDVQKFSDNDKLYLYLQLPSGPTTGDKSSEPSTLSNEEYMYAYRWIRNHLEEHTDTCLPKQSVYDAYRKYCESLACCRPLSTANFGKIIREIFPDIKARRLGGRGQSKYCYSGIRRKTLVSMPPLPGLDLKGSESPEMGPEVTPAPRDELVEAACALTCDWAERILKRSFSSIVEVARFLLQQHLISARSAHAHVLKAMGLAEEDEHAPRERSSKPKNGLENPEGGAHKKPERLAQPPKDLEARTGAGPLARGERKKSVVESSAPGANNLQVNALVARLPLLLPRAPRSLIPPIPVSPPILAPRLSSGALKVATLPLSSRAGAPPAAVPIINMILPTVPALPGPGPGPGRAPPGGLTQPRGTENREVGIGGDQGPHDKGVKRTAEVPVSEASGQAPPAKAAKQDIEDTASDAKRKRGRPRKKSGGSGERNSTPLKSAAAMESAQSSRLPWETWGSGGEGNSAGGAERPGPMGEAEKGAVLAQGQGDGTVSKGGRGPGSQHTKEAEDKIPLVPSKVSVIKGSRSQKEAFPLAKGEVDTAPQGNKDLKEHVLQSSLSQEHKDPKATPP
UniProt Q96PM5: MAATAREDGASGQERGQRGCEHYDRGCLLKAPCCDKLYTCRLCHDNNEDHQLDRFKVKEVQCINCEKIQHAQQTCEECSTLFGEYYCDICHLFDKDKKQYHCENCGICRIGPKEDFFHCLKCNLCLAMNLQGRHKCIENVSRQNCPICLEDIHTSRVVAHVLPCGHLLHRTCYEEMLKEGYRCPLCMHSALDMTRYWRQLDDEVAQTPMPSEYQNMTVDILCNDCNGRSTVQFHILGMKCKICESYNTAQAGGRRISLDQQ

Legend:
Assay in all cases: log2 fold change, soluble protein after heating vs DMSO (PISA); higher = thermal stabilisation; K562 lysate, 10 uM; active = over 0.2 and 3.5 SD of the protein, either way, in both replicates (recomputed)
[1] = compound: C1=CC=C(C=C1)[C@H](COC2=CC3=C(C=C2)NC(=O)N3)NC(=O)C4=CC=CN(C4=O)CC5=CC(=C(C=C5)F)F
Procedure, shortened: (§1)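 Soluble protein was defined as the supernatant remaining after 21,000xg for 90 min, following pooling of heated aliquots and adjustment to 0.5% NP-40 at 4°C. Before that, crude K562 extract at 1 mg/mL protein in PBS pH 7.4 with 1 mM MgCl2 was treated with 10 μM compound for 30 min and heated for 3 min across 48°C-58°C. Quantification used TMTpro 16plex LC-MS/MS with channel sums equalised, and values are log-two fold changes in thermal stability relative to solvent controls from duplicates.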

[2] = compound: CC1=C(SC2=C1C(=N[C@H](C3=NN=C(N32)C)CC(=O)N)C4=CC=C(C=C4)Cl)C
Procedure, shortened: as §1

[3] = compound: CC1=C2C(=CC=C1)N=C(N(C2=O)C3=CC=CC=C3C)CN4C=NC5=C(N=CN=C54)N
Procedure, shortened: as §1

[4] = compound: Cc1sc2c(c1C)C(c1ccc(Cl)cc1)=N[C@@H](CC(=O)OC(C)(C)C)c1nnc(C)n1-2
Procedure, shortened: as §1

[5] = compound: c1ccc([C@@H]2C[C@H]2NC2CCNCC2)cc1
Procedure, shortened: as §1

Measured: log2 fold change

RELA (UniProt Q04206)
inactive: [1] 0.041 | [2] 0.005 | [3] 0.008 | [4] 0.03 | [5] -0.029

RASA3 (UniProt Q14644)
inactive: [1] -0.066 | [2] 0.149 | [3] 0.078 | [4] 0.078 | [5] 0.047

RBCK1 (UniProt Q9BYM8)
inactive: [1] -0.114 | [2] 0.039 | [3] 0.041 | [4] -0.049 | [5] 0.069

RBMX (UniProt P38159)
inactive: [1] 0.089 | [2] -0.01 | [3] -0.004 | [4] -0.015 | [5] -0.072

RBM39 (UniProt Q14498)
inactive: [1] -0.018 | [2] 0.018 | [3] 0.036 | [4] 0.069 | [5] 0.092

REEP5 (UniProt Q00765)
inactive: [1] 0.007 | [2] 0.009 | [3] 0.028 | [4] 0.022 | [5] -0.092

RFXAP (UniProt O00287)
inactive: [1] 0.081 | [2] 0.008 | [3] -0.02 | [4] -0.1 | [5] -0.077

RFX5 (UniProt P48382)
inactive: [1] -0.069 | [2] 0.071 | [3] 0.087 | [4] 0.057 | [5] 0.152

RCHY1 (UniProt Q96PM5)
inactive: [1] 0.046 | [2] 0.022 | [3] 0.081 | [4] 0.082 | [5] -0.029
